# PubChem BioAssay AID1259254 – NCATS | 2017
# Assay: 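Genome-wide screen for genes that prevent DNA re-replication in cancer cells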 (primary screen)
# System: human HCT116 colorectal cancer cells
# Reagents: single siRNA against human genes
# Timing: 3 days
# Measured: 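Imaged Hoechst DNA stain sorts each cell into a cycle phase by DNA amount; per plate, G2 fraction set to 0% for non-targeting and 100% for GMNN siRNA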
# Direction: G2 robust z-score and G2 cells, % of GMNN control: higher = more G2 cells, more excess DNA replication; raw share of cells in G2: higher = larger share of cells with G2 DNA content
# Hit rule: 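An siRNA counts as active if its G2 robust z-score lies at least 5 MADs above the screen median; here such calls match roughly 38% of GMNN control or more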
# The whole screen tested about 59,000 reagents; shown is a random part of them. Over the whole deposit, about 1,550 (2.6%) got an active call. 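G2 share is only a proxy for re-replication; each gene was hit by three separate siRNAs, and active genes were retested.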 The raw values are shown without normalisation. The numbers tell different reagents against one gene apart. Reagent sequences are not shown. The record does not give: the amount of reagent.
gene,reagent no.,G2 robust z-score,"G2 cells, % of GMNN control",raw share of cells in G2 (%),Outcome
ARMCX1,1,1.58,14.1,8.63,inactive
ARMCX1,2,1.07,10.5,8.7,inactive
ARMCX1,3,1.24,11.7,7.07,inactive
RPUSD1,1,-1.32,-6.34,2.25,inactive
RPUSD1,2,-0.0482,2.63,5.47,inactive
RPUSD1,3,-0.608,-1.31,5.06,inactive
PSMC6,1,6.82,51,22.5,active
PSMC6,2,2.07,17.5,11.4,inactive
PSMC6,3,1.22,11.6,7.99,inactive
NR3C1,1,-0.869,-3.14,4.62,inactive
NR3C1,2,6.48,48.6,21.2,active
NR3C1,3,-0.0125,2.88,4.91,inactive
MAN1B1,1,-1.07,-4.53,2.64,inactive
MAN1B1,2,-0.651,-1.61,5.72,inactive
MAN1B1,3,-0.831,-2.88,2.88,inactive
KPRP,1,0.217,4.49,5.36,inactive
KPRP,2,-0.877,-3.2,2.2,inactive
KPRP,3,0.611,7.27,5.59,inactive
VWA2,1,-0.529,-0.756,4.01,inactive
VWA2,2,3.1,24.8,16.6,inactive
VWA2,3,0.422,5.94,7.28,inactive
FLT3LG,1,-0.00654,2.92,6.37,inactive
FLT3LG,2,0.986,9.9,7.19,inactive
FLT3LG,3,0.328,5.27,7.15,inactive
CDIN1,1,-0.82,-2.8,1.56,inactive
CDIN1,2,-0.089,2.34,4.89,inactive
CDIN1,3,-0.0741,2.45,4.18,inactive
RNF139,1,0.775,8.42,6.97,inactive
RNF139,2,-0.854,-3.04,2.82,inactive
RNF139,3,1.3,12.1,11.2,inactive

No new results follow: entries from further up.
gene,reagent no.,G2 robust z-score,"G2 cells, % of GMNN control",raw share of cells in G2 (%),Outcome
VWA2,2,3.1,24.8,16.6,inactive
VWA2,3,0.422,5.94,7.28,inactive
FLT3LG,1,-0.00654,2.92,6.37,inactive
